Test results published in patent US20200062863A1 (CSL BEHRING, published 2020).
These are yes or no findings as the source states them, for the method shown. Some results given as binding are weak or reduced against the parent protein; the word gives no strength.

How the values were obtained:
Experiment in all cases: Western blot of culture supernatant (non-reducing SDS-PAGE) probed with 3F7 mAb, anti-human IgG-FITC
[1] = molecular target: T1, T454K
T1 sequence (single chain): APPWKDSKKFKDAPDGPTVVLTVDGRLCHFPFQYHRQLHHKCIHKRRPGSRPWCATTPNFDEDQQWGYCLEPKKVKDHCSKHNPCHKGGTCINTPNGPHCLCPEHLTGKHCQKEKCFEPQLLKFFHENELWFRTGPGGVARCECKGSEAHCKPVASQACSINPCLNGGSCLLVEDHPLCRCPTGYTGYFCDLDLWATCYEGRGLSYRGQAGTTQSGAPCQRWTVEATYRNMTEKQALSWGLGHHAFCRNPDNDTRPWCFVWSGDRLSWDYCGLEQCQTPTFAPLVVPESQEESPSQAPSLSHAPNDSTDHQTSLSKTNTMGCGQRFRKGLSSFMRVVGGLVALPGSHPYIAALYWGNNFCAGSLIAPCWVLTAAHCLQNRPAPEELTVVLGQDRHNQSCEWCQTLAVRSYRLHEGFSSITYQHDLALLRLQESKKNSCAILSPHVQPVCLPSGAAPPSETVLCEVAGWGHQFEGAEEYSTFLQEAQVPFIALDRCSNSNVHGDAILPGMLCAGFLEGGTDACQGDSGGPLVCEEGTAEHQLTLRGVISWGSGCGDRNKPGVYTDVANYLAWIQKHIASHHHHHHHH

[2] = molecular target: T2, K453R
T2 sequence (single chain): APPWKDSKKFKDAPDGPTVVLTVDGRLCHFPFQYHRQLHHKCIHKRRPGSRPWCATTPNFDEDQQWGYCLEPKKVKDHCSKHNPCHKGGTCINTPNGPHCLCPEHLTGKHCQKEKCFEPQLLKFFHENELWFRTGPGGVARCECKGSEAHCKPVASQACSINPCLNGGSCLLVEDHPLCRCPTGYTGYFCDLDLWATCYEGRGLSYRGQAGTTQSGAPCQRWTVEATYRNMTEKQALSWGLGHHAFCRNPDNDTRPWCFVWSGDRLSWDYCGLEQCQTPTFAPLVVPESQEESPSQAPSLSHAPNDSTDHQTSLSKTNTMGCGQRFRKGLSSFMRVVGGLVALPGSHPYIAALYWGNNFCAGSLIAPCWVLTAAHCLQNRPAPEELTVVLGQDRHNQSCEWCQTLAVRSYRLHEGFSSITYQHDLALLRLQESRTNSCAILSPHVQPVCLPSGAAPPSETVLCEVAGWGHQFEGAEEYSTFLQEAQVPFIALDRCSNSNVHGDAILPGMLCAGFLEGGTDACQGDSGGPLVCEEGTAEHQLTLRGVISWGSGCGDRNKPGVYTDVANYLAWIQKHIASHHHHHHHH

[3] = substrate: T3, **
T3 sequence (single chain): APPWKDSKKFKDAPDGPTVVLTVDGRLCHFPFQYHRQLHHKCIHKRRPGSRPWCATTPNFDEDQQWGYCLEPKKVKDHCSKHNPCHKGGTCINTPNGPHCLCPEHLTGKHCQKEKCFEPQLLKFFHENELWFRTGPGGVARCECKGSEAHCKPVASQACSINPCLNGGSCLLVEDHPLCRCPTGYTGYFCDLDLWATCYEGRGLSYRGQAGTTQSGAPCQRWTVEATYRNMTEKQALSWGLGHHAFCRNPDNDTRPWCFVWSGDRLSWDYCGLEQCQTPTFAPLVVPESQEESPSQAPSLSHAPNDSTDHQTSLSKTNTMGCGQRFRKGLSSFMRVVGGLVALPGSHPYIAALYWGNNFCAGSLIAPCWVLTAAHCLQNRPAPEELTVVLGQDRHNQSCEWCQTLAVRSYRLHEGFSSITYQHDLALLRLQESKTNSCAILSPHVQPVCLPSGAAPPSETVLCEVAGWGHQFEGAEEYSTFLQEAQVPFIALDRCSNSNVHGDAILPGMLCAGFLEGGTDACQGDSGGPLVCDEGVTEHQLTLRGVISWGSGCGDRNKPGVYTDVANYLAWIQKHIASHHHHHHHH

Measured: binding

B1: monoclonal antibody 3F7 (fully human IgG4/lambda) (antibody, V domains shown)
VH: EVQLLESGGGLVQPGGSLRLSCAASGFTFSKYIMQWVRQAPGKGLEWVSGIRPSGGTTVYADSVKGRFTISRDNSKNTLYLQMNSLRAEDTAVYYCARALPRSGYLISPHYYYYALDVWGQGTTVTVSS
VL: QSELTQPPSASGTPGQRVTISCSGSSSNIGRNYVYWYQQVPGTAPKLLIYSNNQRPSGVPDRFSGSKSGTSASLVISGLRSEDEADYYCAAWDASLRGVFGGGTKLTVLG
notes: also called 3F7 mAb; MAb 3F7
binds: [1] | [2] | [3]
